In this test the target is Atp9 (yeast (endogenous in isolated mitochondria)) (UniProt P61829). Description: SDS-PAGE and autoradiography of an SDS-resistant oligomer; translation products radiolabeled in isolated mitochondria for 30 minutes, chase with cold methionine at 30°C for 0, 10 or 30 minutes; monomeric and oligomeric Atp9 resolved by SDS-PAGE.

Amino acid sequences for entries named in this document (tags omitted).
UniProt P61829: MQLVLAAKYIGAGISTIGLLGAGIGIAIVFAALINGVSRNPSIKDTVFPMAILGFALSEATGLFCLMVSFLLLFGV

These are yes or no findings as the source states them, for the method shown. Some results given as binding are weak or reduced against the parent protein; the word gives no strength.

On to Atp9 (from UniProt P61829 1-76), for which the binding entry is listed as “binds”.

The values above are taken from article PMC8887752.
